From paper PMC4525285
Results are given in words; binding and its absence hold for the method and conditions named. For some assays here: Binding seen in cells or lysates may run through a third protein. Some binding calls cover weakened binding; strength is not graded here.

The chains behind the UniProt entries cited, without tags or fusion partners.
UniProt Q6NRM6: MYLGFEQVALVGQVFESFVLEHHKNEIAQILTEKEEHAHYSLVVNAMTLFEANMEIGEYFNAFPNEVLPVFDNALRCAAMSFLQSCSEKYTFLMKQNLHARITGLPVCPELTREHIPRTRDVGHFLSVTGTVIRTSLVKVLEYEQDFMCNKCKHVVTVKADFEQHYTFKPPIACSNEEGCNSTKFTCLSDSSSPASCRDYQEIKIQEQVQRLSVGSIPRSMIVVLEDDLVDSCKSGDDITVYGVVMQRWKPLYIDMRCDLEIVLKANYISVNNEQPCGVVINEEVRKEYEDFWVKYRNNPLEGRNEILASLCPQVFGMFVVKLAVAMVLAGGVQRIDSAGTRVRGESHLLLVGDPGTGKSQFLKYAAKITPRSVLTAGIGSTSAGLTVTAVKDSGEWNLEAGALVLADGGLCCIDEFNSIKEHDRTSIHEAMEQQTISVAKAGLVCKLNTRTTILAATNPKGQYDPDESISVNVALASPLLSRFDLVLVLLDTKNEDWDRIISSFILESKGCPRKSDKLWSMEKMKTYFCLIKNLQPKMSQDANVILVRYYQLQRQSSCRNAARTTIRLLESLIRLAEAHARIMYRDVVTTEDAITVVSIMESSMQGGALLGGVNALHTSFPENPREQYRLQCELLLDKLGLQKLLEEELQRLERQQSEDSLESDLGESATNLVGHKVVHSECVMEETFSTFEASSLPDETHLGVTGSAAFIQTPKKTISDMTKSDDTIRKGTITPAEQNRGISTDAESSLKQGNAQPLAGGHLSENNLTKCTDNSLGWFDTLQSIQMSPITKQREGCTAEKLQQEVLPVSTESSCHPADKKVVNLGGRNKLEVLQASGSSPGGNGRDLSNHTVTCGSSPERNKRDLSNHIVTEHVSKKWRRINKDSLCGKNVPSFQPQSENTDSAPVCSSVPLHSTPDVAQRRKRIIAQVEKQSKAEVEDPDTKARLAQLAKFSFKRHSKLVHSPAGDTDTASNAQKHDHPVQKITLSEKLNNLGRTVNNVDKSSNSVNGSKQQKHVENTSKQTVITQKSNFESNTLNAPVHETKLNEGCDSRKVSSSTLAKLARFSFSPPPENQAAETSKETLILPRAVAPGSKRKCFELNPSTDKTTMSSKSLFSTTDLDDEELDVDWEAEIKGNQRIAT
UniProt Q92878: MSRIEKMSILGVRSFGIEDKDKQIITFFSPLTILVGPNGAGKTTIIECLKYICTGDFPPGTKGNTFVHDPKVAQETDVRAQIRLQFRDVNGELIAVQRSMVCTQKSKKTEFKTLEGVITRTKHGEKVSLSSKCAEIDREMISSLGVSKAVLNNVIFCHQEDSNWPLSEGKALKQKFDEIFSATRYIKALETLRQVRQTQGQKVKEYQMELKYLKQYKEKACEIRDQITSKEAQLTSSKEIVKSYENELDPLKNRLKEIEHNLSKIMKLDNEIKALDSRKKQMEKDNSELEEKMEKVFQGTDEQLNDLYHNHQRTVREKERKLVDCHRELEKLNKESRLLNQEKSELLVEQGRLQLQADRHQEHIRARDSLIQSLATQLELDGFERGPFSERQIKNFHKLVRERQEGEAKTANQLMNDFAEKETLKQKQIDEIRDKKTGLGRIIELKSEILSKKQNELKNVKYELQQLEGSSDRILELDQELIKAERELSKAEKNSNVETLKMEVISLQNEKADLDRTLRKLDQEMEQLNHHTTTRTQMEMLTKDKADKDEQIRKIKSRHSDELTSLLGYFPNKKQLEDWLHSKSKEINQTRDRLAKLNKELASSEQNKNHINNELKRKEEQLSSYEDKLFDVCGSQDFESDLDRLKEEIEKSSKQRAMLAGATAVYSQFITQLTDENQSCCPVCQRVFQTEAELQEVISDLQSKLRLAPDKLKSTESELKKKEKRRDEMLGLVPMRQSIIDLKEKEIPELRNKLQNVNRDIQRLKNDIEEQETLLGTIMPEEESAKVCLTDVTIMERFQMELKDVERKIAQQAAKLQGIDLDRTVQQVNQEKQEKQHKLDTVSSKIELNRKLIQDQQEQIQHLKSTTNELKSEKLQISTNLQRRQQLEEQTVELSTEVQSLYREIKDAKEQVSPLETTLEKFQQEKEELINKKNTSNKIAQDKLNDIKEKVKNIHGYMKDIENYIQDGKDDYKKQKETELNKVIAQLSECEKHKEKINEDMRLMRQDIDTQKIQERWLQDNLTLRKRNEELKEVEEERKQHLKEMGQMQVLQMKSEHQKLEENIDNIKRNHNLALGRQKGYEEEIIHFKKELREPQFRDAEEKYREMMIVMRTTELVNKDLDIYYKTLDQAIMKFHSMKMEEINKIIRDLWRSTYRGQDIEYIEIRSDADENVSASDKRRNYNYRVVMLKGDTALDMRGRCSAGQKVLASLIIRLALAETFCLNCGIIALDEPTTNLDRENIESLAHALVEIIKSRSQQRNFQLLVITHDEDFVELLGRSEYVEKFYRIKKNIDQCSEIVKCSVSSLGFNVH
UniProt Q9NXL9: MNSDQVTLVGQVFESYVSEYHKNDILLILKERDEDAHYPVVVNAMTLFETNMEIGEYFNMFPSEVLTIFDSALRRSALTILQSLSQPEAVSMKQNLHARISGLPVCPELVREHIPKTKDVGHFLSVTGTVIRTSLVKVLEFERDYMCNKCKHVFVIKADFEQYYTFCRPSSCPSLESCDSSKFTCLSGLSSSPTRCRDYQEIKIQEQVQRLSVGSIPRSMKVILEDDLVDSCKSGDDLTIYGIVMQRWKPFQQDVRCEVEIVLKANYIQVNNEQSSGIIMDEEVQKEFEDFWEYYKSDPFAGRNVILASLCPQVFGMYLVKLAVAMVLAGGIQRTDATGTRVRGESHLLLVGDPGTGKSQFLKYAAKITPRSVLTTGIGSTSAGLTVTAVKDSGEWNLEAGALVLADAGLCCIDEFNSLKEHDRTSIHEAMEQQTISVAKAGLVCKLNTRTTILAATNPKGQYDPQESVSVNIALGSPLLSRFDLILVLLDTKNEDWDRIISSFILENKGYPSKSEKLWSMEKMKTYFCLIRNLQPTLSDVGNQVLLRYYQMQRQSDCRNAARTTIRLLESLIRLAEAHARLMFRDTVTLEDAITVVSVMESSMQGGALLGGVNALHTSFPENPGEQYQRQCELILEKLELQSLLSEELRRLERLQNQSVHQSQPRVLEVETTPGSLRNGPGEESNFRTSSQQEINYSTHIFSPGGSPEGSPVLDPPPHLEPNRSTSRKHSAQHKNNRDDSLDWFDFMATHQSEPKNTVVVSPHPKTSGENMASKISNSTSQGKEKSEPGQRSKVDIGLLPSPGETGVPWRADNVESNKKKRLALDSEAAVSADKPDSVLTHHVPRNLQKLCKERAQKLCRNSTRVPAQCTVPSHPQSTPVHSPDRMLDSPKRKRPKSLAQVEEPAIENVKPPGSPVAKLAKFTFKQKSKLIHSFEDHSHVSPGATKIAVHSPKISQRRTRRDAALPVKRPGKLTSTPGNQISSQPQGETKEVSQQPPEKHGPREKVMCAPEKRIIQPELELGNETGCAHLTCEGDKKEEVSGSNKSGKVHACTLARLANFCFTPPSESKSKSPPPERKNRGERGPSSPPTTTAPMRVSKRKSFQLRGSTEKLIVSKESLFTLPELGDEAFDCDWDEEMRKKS
UniProt Q5F310: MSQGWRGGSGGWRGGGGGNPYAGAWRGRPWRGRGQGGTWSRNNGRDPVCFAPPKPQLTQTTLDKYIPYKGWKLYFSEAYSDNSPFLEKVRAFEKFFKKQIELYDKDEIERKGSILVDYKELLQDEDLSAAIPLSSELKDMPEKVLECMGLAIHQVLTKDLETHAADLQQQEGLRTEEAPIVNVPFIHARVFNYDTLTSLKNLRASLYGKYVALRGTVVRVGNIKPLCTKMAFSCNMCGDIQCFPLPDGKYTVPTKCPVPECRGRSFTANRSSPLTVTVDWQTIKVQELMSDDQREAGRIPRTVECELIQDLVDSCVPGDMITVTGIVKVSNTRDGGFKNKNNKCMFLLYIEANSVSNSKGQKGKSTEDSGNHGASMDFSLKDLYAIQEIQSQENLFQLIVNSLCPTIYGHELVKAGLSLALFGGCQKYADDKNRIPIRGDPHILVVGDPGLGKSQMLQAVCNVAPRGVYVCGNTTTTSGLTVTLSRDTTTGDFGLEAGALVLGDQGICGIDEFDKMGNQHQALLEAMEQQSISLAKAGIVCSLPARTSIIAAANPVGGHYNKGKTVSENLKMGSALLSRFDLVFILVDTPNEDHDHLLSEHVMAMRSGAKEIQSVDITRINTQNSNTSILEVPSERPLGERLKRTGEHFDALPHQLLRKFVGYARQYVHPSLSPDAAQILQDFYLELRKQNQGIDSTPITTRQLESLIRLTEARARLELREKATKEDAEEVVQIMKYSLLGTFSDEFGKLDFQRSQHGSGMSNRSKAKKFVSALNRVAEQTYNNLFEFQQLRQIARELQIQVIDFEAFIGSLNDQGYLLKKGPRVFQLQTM
UniProt Q9UJA3: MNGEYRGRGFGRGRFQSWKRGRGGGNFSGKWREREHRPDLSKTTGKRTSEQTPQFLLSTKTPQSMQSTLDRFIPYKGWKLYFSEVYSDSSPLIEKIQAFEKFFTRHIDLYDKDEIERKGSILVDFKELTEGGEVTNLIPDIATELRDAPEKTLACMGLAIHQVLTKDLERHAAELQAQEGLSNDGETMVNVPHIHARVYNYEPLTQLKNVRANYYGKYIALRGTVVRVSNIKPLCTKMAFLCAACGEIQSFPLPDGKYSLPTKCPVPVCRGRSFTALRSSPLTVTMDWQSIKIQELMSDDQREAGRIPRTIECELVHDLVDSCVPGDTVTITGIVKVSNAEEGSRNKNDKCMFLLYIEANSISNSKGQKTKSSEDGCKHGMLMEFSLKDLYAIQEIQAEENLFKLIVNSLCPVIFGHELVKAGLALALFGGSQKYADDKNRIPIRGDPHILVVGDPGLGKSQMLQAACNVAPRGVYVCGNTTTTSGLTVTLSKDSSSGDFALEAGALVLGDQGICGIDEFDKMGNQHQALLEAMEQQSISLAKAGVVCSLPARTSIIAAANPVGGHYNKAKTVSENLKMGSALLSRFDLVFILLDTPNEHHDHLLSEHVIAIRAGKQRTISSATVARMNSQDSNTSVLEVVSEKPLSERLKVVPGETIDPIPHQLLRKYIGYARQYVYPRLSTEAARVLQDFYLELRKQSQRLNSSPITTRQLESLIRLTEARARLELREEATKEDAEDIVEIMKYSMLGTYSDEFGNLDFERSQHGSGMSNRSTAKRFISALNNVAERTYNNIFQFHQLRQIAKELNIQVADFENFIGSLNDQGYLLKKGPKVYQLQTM
UniProt O60934: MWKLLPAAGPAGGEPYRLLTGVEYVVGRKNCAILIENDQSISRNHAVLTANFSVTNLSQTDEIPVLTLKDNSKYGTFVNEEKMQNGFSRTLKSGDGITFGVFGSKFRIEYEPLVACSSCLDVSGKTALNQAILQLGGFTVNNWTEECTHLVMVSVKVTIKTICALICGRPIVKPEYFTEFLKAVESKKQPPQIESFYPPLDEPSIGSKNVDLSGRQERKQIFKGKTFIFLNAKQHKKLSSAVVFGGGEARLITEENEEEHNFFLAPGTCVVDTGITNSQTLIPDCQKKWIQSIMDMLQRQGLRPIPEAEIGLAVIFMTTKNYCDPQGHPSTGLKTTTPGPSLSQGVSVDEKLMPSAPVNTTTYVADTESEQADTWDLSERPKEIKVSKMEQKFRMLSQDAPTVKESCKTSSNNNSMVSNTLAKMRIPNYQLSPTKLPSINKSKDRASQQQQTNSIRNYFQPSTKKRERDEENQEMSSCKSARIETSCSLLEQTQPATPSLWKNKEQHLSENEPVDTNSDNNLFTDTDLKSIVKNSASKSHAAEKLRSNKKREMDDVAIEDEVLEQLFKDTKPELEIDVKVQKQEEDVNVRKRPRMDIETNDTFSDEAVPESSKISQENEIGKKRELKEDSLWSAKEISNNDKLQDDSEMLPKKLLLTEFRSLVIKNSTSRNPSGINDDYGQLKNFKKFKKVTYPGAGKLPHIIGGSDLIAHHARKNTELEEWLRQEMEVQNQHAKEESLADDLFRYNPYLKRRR

What was measured:
[1] = target: His-tagged Xenopus MCM9 wild type (Xenopus) (UniProt Q6NRM6); assay: co-purification (Ni-NTA, heparin and Q columns) with silver stain and immunoblot; His-tagged Xenopus MCM8 and MCM9 (WT or WA) co-expressed in Sf9 cells and purified; purified preparation silver-stained and immunoblotted with anti-human MRE11 antibody
[2] = target: RAD50 (human (endogenous in HEK293T)) (UniProt Q92878); assay: co-IP; endogenous MCM9 or RAD50 immunoprecipitated from HEK293T lysates (3 mg) with anti-MCM9 or anti-RAD50 antibody and protein G agarose, in the presence of EtBr (10 ug/ml); lysis buffer 20 mM Tris-HCl pH 7.5, 100 mM NaCl, 1% NP-40, 1 mM ATP; immunoblot
[3] = target: MCM9 (human (endogenous in HEK293T)) (UniProt Q9NXL9); assay: as above

| Substance | binding [2] | binding [3] | further results |
| --- | --- | --- | --- |
| His-tagged Xenopus MCM8 (from UniProt Q5F310 1-831) |  |  | binding [1]: binds |
| MCM8 (from UniProt Q9UJA3 1-840) | binds |  |  |
| MCM9 (from UniProt Q9NXL9 1-1143) | binds |  |  |
| NBS1 (from UniProt O60934 1-754) |  | binds |  |
| RAD50 (from UniProt Q92878 1-1312) |  | binds |  |
